Measurements reported in article PMC11044505.

Target: Flag-tagged fruit fly Traf6 (Drosophila (fruit fly))
Assay: co-IP; anti-Flag pulldown from lysates of tub-Gal4 > UAS:Flag-dTraf6 animals; eluted proteins analysed by SDS-PAGE and Western blotting

B1: endogenous Drosophila SMN (protein, UniProt Q9VV74 1-226)
chain: MSDETNAAVWDDSLLVKTYDESVGLAREALARRLADSTNKREEENAAAAEEEAGEISATGGATSPEPVSFKVGDYARATYVDGVDYEGAVVSINEEKGTCVLRYLGYENEQEVLLVDLLPSWGKRVRREQFLIAKKDEDEQLSRPKASAGSHSKTPKSSRRSRISGGLVMPPMPPVPPMIVGQGDGAEQDFVAMLTAWYMSGYYTGLYQGKKEASTTSGKKKTPKK
For B1, which binding is on record?
Its binding is “no binding”.

These are yes or no findings as the source states them, for the method shown. In cells and extracts the contact can be indirect.
